Assay results taken from the supplement of paper PMC10849652.
This is one part of the list.

Sequences of proteins named here, by UniProt entry; tags and fusion partners are left off. A change or cut given only in a name is not applied to a line headed by its entry.
UniProt Q96FZ2: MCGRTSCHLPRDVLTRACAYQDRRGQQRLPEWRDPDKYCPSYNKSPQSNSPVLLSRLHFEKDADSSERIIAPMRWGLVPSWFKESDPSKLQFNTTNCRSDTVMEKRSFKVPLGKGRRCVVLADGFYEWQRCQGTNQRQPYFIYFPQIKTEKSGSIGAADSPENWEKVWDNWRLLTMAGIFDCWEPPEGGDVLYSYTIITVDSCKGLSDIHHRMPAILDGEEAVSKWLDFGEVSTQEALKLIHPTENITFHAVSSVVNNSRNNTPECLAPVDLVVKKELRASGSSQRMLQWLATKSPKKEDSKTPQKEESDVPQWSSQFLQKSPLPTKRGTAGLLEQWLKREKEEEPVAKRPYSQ
UniProt P41134: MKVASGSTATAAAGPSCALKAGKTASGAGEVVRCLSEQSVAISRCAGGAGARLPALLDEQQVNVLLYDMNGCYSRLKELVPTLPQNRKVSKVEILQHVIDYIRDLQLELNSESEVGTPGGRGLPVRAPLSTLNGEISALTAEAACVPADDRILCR
UniProt Q92902: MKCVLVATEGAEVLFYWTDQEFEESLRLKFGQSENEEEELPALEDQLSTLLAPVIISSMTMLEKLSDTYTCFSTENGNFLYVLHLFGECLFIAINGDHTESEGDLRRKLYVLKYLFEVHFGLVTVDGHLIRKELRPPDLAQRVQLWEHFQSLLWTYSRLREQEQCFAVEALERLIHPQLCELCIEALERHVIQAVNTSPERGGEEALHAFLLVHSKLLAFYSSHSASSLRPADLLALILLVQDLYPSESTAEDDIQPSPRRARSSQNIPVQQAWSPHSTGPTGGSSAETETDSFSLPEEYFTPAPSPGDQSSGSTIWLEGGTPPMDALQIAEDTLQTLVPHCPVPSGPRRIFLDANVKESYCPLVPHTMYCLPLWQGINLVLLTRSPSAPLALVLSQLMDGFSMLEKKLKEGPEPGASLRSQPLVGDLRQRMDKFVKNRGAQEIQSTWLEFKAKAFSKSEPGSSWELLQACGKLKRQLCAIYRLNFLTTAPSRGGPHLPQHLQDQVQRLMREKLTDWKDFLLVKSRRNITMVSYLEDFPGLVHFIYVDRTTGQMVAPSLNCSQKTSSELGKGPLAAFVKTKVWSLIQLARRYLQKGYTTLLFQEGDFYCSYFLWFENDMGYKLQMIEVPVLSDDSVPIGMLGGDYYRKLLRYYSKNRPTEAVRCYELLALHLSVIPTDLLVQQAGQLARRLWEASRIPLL
UniProt Q9NSC5: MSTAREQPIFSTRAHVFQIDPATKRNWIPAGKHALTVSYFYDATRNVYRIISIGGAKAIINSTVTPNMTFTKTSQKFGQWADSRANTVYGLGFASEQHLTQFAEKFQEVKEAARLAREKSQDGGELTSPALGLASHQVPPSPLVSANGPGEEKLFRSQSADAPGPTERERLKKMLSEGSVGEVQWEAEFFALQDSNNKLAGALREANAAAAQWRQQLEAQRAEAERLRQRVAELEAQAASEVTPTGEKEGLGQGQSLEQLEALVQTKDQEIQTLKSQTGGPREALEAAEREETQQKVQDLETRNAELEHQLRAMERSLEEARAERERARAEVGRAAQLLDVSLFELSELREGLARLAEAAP
UniProt P54652, whole entry, looked up: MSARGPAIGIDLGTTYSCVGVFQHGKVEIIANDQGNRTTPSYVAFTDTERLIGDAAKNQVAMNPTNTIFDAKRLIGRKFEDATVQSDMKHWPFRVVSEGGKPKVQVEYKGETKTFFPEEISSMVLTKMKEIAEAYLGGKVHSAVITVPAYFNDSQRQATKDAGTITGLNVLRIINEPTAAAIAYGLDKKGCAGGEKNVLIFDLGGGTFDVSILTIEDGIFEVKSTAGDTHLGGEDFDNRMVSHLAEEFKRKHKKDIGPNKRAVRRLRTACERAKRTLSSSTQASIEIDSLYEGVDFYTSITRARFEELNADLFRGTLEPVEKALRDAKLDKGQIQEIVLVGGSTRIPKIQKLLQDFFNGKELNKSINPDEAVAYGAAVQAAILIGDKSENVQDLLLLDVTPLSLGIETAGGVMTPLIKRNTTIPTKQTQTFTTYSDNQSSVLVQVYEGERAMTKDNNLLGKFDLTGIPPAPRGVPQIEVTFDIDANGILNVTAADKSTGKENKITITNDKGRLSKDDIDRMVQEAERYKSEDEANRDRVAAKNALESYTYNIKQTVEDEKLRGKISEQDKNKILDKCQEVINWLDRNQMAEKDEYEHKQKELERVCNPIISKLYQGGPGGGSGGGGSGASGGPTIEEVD
UniProt Q9NZL4: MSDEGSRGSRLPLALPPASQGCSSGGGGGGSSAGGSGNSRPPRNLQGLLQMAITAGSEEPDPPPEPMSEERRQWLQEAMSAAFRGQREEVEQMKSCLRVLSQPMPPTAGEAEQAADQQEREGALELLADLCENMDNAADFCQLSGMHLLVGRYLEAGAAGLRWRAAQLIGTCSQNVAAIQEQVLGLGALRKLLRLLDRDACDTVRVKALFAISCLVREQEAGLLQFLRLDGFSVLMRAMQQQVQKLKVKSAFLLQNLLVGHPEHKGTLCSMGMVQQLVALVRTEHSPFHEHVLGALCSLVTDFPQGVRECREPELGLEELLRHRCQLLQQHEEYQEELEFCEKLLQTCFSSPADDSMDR
UniProt P17483: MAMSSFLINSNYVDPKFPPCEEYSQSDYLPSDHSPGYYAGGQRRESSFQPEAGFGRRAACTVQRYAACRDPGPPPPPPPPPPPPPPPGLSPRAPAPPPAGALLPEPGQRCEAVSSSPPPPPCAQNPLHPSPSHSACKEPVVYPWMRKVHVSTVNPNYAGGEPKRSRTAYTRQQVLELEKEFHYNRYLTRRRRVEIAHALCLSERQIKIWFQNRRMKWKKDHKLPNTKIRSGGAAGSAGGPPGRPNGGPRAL
UniProt Q00613: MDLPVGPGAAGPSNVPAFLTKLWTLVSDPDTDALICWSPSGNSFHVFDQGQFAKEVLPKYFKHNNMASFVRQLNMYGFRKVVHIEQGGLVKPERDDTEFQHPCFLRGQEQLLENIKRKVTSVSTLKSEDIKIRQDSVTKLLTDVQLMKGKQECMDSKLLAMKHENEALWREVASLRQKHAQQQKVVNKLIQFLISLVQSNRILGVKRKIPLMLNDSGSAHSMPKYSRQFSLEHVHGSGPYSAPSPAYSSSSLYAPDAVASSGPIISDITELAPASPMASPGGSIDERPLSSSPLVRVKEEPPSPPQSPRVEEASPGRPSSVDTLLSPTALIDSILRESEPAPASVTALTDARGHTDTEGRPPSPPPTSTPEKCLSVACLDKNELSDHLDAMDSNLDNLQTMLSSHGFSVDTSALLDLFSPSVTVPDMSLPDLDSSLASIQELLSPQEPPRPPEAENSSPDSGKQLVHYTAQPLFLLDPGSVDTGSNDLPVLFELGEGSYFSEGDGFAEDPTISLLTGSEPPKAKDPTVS
UniProt Q96EW2: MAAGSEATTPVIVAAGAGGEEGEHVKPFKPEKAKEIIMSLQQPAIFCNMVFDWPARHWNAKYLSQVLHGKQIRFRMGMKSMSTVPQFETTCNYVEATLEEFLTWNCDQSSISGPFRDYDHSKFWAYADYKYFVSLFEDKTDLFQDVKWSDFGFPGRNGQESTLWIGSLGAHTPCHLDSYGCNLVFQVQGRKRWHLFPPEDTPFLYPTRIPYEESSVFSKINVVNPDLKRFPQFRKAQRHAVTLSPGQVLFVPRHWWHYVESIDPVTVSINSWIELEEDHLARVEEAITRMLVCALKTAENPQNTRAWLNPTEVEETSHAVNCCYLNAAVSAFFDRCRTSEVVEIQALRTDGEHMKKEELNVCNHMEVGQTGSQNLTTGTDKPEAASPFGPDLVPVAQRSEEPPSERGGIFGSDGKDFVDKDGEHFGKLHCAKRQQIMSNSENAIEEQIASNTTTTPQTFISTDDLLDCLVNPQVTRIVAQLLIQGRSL
UniProt Q9NSB8: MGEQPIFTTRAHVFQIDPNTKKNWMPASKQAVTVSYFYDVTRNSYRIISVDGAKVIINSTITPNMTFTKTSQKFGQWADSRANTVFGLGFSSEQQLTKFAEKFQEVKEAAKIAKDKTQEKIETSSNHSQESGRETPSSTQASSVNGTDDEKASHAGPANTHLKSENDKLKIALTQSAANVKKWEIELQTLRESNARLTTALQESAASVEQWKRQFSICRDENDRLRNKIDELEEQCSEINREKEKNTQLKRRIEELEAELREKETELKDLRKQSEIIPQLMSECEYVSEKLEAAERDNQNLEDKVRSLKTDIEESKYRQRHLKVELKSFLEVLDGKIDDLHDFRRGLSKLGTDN
UniProt Q9UGU5: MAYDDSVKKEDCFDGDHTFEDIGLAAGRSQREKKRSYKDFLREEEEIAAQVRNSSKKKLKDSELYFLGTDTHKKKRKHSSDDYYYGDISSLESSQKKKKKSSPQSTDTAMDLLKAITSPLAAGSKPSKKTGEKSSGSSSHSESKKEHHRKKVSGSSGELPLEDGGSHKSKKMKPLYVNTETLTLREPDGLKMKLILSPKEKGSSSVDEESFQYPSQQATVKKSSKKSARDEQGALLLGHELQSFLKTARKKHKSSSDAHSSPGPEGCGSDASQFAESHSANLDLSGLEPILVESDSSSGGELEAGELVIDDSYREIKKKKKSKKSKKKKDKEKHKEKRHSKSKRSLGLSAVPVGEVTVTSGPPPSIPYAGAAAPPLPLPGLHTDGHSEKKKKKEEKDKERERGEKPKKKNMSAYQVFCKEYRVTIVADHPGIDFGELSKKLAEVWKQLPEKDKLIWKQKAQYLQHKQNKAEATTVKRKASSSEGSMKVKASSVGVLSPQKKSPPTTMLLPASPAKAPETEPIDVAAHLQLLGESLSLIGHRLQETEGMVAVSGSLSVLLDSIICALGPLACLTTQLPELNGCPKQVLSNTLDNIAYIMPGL
UniProt Q9BW72: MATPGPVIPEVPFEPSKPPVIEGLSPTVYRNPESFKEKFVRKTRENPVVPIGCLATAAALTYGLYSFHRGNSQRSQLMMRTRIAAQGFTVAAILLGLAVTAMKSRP
UniProt Q659A1: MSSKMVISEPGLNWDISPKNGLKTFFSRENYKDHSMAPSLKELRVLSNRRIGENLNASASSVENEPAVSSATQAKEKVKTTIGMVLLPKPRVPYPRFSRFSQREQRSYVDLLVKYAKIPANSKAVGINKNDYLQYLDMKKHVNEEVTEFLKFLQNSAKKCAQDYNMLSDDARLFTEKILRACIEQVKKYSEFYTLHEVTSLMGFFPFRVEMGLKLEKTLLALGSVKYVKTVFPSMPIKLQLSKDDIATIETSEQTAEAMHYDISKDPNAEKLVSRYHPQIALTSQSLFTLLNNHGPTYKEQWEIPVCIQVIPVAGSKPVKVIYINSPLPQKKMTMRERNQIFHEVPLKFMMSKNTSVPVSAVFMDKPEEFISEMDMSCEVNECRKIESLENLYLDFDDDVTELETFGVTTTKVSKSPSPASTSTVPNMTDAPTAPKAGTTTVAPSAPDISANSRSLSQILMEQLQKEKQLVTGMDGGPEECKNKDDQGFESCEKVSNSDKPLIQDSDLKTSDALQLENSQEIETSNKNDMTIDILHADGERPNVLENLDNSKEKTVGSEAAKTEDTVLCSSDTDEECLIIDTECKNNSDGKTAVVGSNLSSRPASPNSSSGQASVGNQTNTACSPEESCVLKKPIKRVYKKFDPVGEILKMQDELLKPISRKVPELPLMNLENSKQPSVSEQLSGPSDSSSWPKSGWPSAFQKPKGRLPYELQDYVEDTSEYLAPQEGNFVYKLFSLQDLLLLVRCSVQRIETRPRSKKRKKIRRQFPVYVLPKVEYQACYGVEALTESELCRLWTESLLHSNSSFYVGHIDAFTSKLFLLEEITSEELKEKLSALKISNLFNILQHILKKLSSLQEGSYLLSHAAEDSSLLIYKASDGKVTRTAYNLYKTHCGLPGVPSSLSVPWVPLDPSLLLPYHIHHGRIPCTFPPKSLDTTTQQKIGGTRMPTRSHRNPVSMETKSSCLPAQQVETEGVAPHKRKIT
UniProt Q96ED9: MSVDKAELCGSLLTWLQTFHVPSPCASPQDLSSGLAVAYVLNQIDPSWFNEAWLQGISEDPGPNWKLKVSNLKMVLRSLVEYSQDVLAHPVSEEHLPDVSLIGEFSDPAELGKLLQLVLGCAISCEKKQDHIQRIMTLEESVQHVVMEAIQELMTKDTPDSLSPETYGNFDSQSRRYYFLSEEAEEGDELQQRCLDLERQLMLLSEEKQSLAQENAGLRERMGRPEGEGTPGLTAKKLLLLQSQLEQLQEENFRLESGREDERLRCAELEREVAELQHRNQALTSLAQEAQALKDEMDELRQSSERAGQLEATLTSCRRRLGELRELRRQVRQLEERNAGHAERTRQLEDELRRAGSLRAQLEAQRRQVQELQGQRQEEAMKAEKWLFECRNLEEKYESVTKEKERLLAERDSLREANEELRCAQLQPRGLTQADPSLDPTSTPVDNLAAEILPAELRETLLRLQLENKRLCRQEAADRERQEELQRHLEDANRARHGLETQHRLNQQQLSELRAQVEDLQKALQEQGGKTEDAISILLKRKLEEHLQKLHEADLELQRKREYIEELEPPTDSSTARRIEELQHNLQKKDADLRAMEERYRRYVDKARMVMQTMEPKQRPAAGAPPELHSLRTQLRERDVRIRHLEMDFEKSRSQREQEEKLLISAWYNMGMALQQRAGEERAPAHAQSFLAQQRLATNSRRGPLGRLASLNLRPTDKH

How the values were obtained:
Test in all cases: log2 fold change, soluble protein after heating vs DMSO (PISA); higher = thermal stabilisation; K562 cells, 10 uM, 30 min; active = over 0.2 and 3.5 SD of the protein, either way, in both replicates (recomputed)
[1] = compound: CS(=O)(=O)c1ccc(-c2cnc(N)c(C(=O)Nc3ccccc3)n2)cc1
Outline: (§1)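 For each measurement, 10 μM compound was applied for 30 min to K562 cells at 2×10^6 cells/mL. Aliquots were heated for 3 min across 48°C-58°C, pooled, and extracted in PBS with 0.5% NP-40 at 4°C; the supernatant after 21,000xg for 90 min was soluble protein. This was quantified by TMTpro 16plex LC-MS/MS with channel sums equalised, and thermal stability was reported relative to control samples from duplicates, on a log2 fold-change scale.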

[2] = compound: C[C@@H]1COCCN1C2=NC(=NC(=C2)C3(CC3)S(=O)(=O)C)C4=C5C=CNC5=CC=C4
Outline: as §1

duvelisib = compound: C[C@H](Nc1ncnc2nc[nH]c12)c1cc2cccc(Cl)c2c(=O)n1-c1ccccc1 [duvelisib]
Outline: as §1

tozasertib = compound: Cc1cc(Nc2cc(N3CCN(C)CC3)nc(Sc3ccc(NC(=O)C4CC4)cc3)n2)n[nH]1 [tozasertib]
Outline: as §1

[3] = compound: Cc1cc(SCc2sc(-c3ccc(C(F)(F)F)cc3)nc2C)ccc1OCC(=O)O
Outline: as §1

ispinesib = compound: Cc1ccc(C(=O)N(CCCN)[C@@H](c2nc3cc(Cl)ccc3c(=O)n2Cc2ccccc2)C(C)C)cc1 [ispinesib]
Outline: as §1

bafetinib = compound: Cc1ccc(NC(=O)c2ccc(CN3CC[C@H](N(C)C)C3)c(C(F)(F)F)c2)cc1Nc1nccc(-c2cncnc2)n1 [bafetinib]
Outline: as §1

nilotinib = compound: Cc1cn(-c2cc(NC(=O)c3ccc(C)c(Nc4nccc(-c5cccnc5)n4)c3)cc(C(F)(F)F)c2)cn1 [nilotinib]
Outline: as §1

[4] = compound: Cc1nc(Nc2n[nH]c3c2CN(C(=O)N[C@H](CN(C)C)c2ccccc2)C3(C)C)c2sccc2n1
Outline: as §1

dasatinib = compound: Cc1nc(Nc2ncc(C(=O)Nc3c(C)cccc3Cl)s2)cc(N2CCN(CCO)CC2)n1 [dasatinib]
Outline: as §1

[5] = compound: Cc1ncc(-c2ccnc(Nc3ccc(S(C)(=O)=O)cc3)n2)n1C(C)C
Outline: as §1

[6] = compound: Cn1cc(-c2ccc3nnc(C(F)(F)c4ccc5ncccc5c4)n3n2)cn1
Outline: as §1

tipifarnib = compound: Cn1cncc1[C@@](N)(c1ccc(Cl)cc1)c1ccc2c(c1)c(-c1cccc(Cl)c1)cc(=O)n2C [tipifarnib]
Outline: as §1

mubritinib = compound: FC(F)(F)c1ccc(/C=C/c2nc(COc3ccc(CCCCn4ccnn4)cc3)co2)cc1 [mubritinib]
Outline: as §1

crizotinib = compound: C[C@@H](Oc1cc(-c2cnn(C3CCNCC3)c2)cnc1N)c1c(Cl)ccc(F)c1Cl [crizotinib]
Outline: as §1

gandotinib = compound: Cc1cc(Nc2cc(CN3CCOCC3)c3nc(C)c(Cc4ccc(Cl)cc4F)n3n2)n[nH]1 [gandotinib]
Outline: as §1

doramapimod = compound: Cc1ccc(-n2nc(C(C)(C)C)cc2NC(=O)Nc2ccc(OCCN3CCOCC3)c3ccccc23)cc1 [doramapimod]
Outline: as §1

[7] = compound: Cc1cccc(CC(=O)N2CCc3c2ccc(-c2cn(C)c4ncnc(N)c24)c3F)n1
Outline: as §1

[8] = compound: C[C@H](C1=CC=C(C=C1)C(=O)NC2=C3C=CNC3=NC=C2)N
Outline: as §1

[9] = compound: Cn1cc(-c2ccc3c(c2)CCN3C(=O)Cc2cccc(C(F)(F)F)c2)c2c(N)ncnc21
Outline: as §1

Measured: log2 fold change

HMCES (UniProt Q96FZ2)
inactive: [1] 0.094 | [2] 0.203 | duvelisib 0.202 | tozasertib -0.077 | [3] 0.12 | ispinesib -0.029 | bafetinib -0.091 | nilotinib -0.021 | [4] 0.209 | dasatinib 0.047 | [5] -0.133 | [6] 0.026 | tipifarnib 0.112 | mubritinib -0.32

HIF1AN (UniProt Q9NWT6)
inactive: crizotinib 0.158 | [2] -0.023 | duvelisib 0.024 | gandotinib -0.019 | tozasertib -0.052 | [3] 0.043 | doramapimod -0.002 | ispinesib 0.017 | bafetinib -0.086 | [7] 0.009 | nilotinib -0.057 | [4] -0.095 | dasatinib 0.007 | [5] 0.043 | [6] -0.023 | tipifarnib 0.118 | mubritinib 0.049

HYOU1, A0A494C039
inactive: [1] 0.038 | [2] -0.149 | [8] 0.065 | duvelisib -0.052 | gandotinib -0.045 | tozasertib 0.211 | [3] -0.033 | bafetinib 0.014 | [7] -0.004 | nilotinib -0.01 | [4] -0.108 | dasatinib 0.062 | [5] 0.087 | [9] -0.154 | mubritinib -0.022

ID1 (UniProt P41134)
inactive: [2] 0.107 | duvelisib 0.038 | tozasertib 0.013 | [3] 0.332 | ispinesib -0.11 | bafetinib -0.002 | nilotinib 0.022 | [4] -0.127 | dasatinib -0.295 | [5] 0.045 | [6] 0.169 | mubritinib 0.268

HPS1 (UniProt Q92902)
inactive: [1] -0.03 | [8] 0.175 | tozasertib -0.049 | ispinesib 0.101 | bafetinib -0.016 | nilotinib -0.002 | [4] -0.03 | [5] 0.026 | [9] 0.058 | [6] -0.312 | tipifarnib 0.057 | mubritinib 0.042

ICOSLG isoform 2 (UniProt O75144)
inactive: bafetinib -0.083 | tipifarnib -0.128 | mubritinib -0.037

HOMER3 (UniProt Q9NSC5)
inactive: [1] -0.031 | [8] -0.082 | [9] -0.086 | mubritinib -0.05

HSPA2 (UniProt P54652)
inactive: [1] 0.011 | crizotinib 0.123 | doramapimod -0.003 | ispinesib -0.025 | bafetinib -0.08 | nilotinib 0.024 | [4] 0.031 | [5] -0.013 | [6] 0.003 | mubritinib -0.067

HUWE1 isoform 2 (UniProt Q7Z6Z7)
inactive: [1] -0.344 | [8] -0.336 | duvelisib 0.007 | [3] 0.016 | dasatinib -0.041 | [9] 0.013

HSPBP1 (UniProt Q9NZL4)
inactive: [2] -0.05

HSBP1 (UniProt O75506)
inactive: bafetinib -0.229 | nilotinib 0.437 | [4] -0.143 | [5] -0.04

HOOK1 (UniProt Q9UJC3)
inactive: [2] -0.268 | duvelisib 0.074 | [3] -0.098 | dasatinib -0.019 | tipifarnib -0.001

HOXD9 (UniProt P28356)
inactive: [8] 0.006 | duvelisib 0.04 | gandotinib -0.113 | [3] 0.077 | [7] 0.122 | dasatinib -0.082 | [9] 0.179

HOXB4 (UniProt P17483)
inactive: [2] -0.117 | nilotinib -0.083 | [4] -0.075 | [5] -0.213

HSF1 (UniProt Q00613)
inactive: [1] -0.009 | [2] 0.103 | [8] 0.032 | duvelisib -0.02 | gandotinib -0.211 | tozasertib -0.064 | [3] 0.182 | bafetinib 0.019 | [7] 0.025 | nilotinib -0.103 | [4] -0.109 | dasatinib -0.362 | [5] -0.085 | [9] 0.217 | tipifarnib -0.074 | mubritinib -0.019

HSPBAP1 (UniProt Q96EW2)
inactive: crizotinib 0.077 | [8] 0.094 | doramapimod 0.089 | [9] -0.173

2 records drawn at random from the list so far, as already listed:
ID1 (UniProt P41134)
inactive: [2] 0.107 | duvelisib 0.038 | tozasertib 0.013 | [3] 0.332 | ispinesib -0.11 | bafetinib -0.002 | nilotinib 0.022 | [4] -0.127 | dasatinib -0.295 | [5] 0.045 | [6] 0.169 | mubritinib 0.268

HMCES (UniProt Q96FZ2)
inactive: [1] 0.094 | [2] 0.203 | duvelisib 0.202 | tozasertib -0.077 | [3] 0.12 | ispinesib -0.029 | bafetinib -0.091 | nilotinib -0.021 | [4] 0.209 | dasatinib 0.047 | [5] -0.133 | [6] 0.026 | tipifarnib 0.112 | mubritinib -0.32

Following part

HMBS (UniProt F5H0P4)
inactive: mubritinib -0.35

HNRNPU isoform 2 (UniProt Q00839)
inactive: duvelisib -0.131 | tozasertib 0.066 | [3] 0.076 | dasatinib 0.034 | tipifarnib 0.053

HOMER2 (UniProt Q9NSB8)
inactive: [2] -0.357 | [8] 0.088 | tozasertib -0.051 | [9] 0.037 | mubritinib 0.003

HIST2H2AA3 (UniProt Q6FI13)
inactive: crizotinib -0.195 | [2] -0.513 | [8] 0.517 | duvelisib 0.364 | gandotinib 0.119 | tozasertib 0.089 | [3] 0.31 | doramapimod 0.144 | ispinesib -0.053 | bafetinib 0.149 | [7] -0.139 | nilotinib 0.072 | [4] -0.057 | dasatinib 0.033 | [5] 0.012 | [9] -0.349 | [6] -0.082 | mubritinib -0.054

ICA1 isoform 2 (UniProt Q05084)
inactive: crizotinib -0.092 | [2] 0.074 | [8] 0.054 | duvelisib -0.138 | gandotinib -0.101 | [3] 0.064 | doramapimod 0.085 | ispinesib 0.14 | [7] -0.035 | dasatinib 0.034 | [9] 0.047 | [6] 0.112

HTD2 (UniProt P86397)
inactive: [1] 0.026 | [2] 0.392 | [8] -0.297 | gandotinib 0.122 | bafetinib 0.074 | [7] -0.16 | [9] -0.125 | tipifarnib -0.077 | mubritinib 0.071

HPF1 (UniProt Q9NWY4)
inactive: [2] -0.119 | duvelisib -0.119 | [3] -0.054 | dasatinib -0.115

HMGXB4 (UniProt Q9UGU5)
inactive: [2] 0.081 | [8] 0.074 | [9] 0.225 | tipifarnib -0.194

HIGD2A (UniProt Q9BW72)
inactive: crizotinib 0.086 | [2] 0.097 | doramapimod 0.006

HSP90AA2P (UniProt Q14568)
inactive: tozasertib -0.064

HTR1F (UniProt P30939)
inactive: crizotinib -0.028 | [8] -0.014 | gandotinib -0.329 | doramapimod -0.129 | [7] -0.16 | [9] 0.125

HMGN5 (UniProt Q5JSK9)
inactive: [1] 0.082 | [2] 0.15 | [8] 0.33 | duvelisib 0.146 | gandotinib -0.155 | tozasertib -0.088 | [3] -0.015 | ispinesib -0.255 | bafetinib -0.054 | [7] -0.127 | dasatinib 0.106 | [9] -0.087 | [6] 0.154 | tipifarnib 0.161 | mubritinib 0.105

HMG20B (UniProt Q9P0W2)
inactive: crizotinib 0.008 | [8] -0.224 | gandotinib -0.128 | doramapimod -0.017 | bafetinib -0.014 | [7] -0.226 | nilotinib -0.064 | [4] -0.179 | [5] -0.198 | [9] 0.065

ICE2 (UniProt Q659A1)
inactive: [2] 0.052 | [8] 0.201 | gandotinib 0.136 | bafetinib 0.077 | [7] -0.185 | [9] -0.097

HOOK2 (UniProt Q96ED9)
inactive: crizotinib 0.038 | [2] -0.082 | [8] -0.074 | tozasertib -0.304 | doramapimod -0.053 | [9] 0.209 | tipifarnib -0.02
